The source of these data is patent publication US20140199302A1 (GENERAL HOSPITAL, published 2014).

The chains behind the UniProt entries cited, without tags or fusion partners. Residues count along the entry.
UniProt P22004, residues 382-513: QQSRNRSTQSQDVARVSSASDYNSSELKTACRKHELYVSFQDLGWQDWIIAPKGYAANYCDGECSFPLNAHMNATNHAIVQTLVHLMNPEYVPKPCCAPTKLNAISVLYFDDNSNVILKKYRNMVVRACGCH

Results are given in words; binding and its absence hold for the method and conditions named. Some binding calls cover weakened binding; strength is not graded here. Tags and fused reporters may be left off the sequences shown.

The target in this assay is human BMP6 (human) (UniProt P22004). Nature of the assay: SPR (Biacore), human BMP6 immobilized on CM5 chip. On the technique in general: SPR reads the build-up and loss of mass on a sensor chip optically.

B1: soluble human hemojuvelin with a HIS-tag (HJV.His) (receptor, UniProt Q6ZVN8 36-400, looked up, not shown: small tags and cut ends)
chain: QCKILRCNAEYVSSTLSLRGGGSSGALRGGGGGGRGGGVGSGGLCRALRSYALCTRRTARTCRGDLAFHSAVHGIEDLMIQHNCSRQGPTAPPPPRGPALPGAGSGLPAPDPCDYEGRFSRLHGRPPGFLHCASFGDPHVRSFHHHFHTCRVQGAWPLLDNDFLFVQATSSPMALGANATATRKLTIIFKNMQECIDQKVYQAEVDNLPVAFEDGSINGGDRPGGSSLSIQTANPGNHVEIQAAYIGTTIIIRQTAGQLSFSIKVAEDVAMAFSAEQDLQLCVGGCPPSQRLSRSERNRRGAITIDTARRLCKEGLPVEDAYFHSCVFDVLISGDPNFTVAAQAALEDARAFLPDLEKLHLFPSD
Take B1: the binding entry is “binds”.
